Results published in patent US8708475B2, “Ultraviolet crosslinking inkjet ink, ink cartridge containing same, and image forming method and apparatus using same” (Ricoh Company, Ltd., priority 2010, dated 2014).
Some entries share one result that the patent states for a list of compounds.

Tested on: mice
Conditions: LLNA method; monomers that were tested

| Substance | SI value, bound stated for listed methacrylates |
| --- | --- |
| Tricyclodecane dimethanol dimethacrylate | less than 3 |
| γ-Butyrolactone methacrylate | less than 3 |
